The source of these data is paper PMC5974087.

By UniProt entry, the sequences of proteins in these tests, tags left out.
UniProt O75334: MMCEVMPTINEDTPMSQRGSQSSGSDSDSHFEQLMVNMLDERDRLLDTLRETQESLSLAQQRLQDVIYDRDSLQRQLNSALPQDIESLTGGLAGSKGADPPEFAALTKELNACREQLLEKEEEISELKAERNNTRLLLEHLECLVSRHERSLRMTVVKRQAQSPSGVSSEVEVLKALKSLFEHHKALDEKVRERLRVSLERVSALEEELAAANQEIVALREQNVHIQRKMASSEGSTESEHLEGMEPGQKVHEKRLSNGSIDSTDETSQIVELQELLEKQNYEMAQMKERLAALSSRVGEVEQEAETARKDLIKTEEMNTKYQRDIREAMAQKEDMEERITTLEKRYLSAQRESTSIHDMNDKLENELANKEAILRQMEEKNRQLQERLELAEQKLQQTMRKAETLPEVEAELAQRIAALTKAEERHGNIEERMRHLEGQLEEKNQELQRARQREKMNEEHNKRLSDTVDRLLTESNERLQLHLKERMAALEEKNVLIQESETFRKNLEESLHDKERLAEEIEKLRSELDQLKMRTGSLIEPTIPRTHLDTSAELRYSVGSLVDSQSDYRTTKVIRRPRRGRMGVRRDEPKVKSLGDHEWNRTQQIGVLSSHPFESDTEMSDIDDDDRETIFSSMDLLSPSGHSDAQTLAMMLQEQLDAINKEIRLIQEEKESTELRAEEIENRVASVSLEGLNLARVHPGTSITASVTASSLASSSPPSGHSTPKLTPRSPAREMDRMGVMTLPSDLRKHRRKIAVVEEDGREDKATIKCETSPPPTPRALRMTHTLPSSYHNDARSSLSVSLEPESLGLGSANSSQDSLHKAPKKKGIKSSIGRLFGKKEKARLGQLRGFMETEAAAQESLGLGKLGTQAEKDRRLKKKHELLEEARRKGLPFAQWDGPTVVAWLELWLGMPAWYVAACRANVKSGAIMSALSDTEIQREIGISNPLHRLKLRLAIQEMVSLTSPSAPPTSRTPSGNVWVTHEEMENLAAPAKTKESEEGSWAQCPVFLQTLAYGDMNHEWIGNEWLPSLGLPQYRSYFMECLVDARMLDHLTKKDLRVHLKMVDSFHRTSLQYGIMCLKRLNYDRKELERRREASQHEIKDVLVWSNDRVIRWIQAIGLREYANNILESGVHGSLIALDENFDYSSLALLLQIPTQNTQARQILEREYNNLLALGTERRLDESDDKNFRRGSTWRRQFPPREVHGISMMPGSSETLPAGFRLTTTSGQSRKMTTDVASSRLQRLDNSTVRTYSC

For experiment [1], the target named is T1, DNAAF2, LUMIER fusion (human) (UniProt Q9NVR5).
T1 sequence: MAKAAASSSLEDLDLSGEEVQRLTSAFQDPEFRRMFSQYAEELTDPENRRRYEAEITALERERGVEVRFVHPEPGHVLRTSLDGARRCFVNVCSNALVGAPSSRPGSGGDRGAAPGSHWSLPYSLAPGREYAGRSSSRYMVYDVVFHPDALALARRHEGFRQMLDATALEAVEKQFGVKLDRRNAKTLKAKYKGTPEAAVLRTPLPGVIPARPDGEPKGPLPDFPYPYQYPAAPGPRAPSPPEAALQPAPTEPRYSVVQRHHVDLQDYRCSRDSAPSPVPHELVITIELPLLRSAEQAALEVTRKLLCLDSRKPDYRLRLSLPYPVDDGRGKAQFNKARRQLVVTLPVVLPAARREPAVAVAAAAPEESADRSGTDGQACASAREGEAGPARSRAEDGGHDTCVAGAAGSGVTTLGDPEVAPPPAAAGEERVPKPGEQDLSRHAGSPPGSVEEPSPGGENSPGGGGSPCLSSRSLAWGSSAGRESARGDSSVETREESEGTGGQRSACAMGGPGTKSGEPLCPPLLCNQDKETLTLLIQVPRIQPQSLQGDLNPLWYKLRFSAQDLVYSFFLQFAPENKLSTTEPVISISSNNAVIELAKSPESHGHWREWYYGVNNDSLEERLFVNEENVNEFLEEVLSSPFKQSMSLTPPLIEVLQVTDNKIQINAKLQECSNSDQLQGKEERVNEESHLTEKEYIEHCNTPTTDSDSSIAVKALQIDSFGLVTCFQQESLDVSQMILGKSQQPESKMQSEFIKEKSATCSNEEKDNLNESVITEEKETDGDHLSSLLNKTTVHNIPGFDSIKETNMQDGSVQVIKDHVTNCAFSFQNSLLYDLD
The experiment is described as follows: co-IP; LUMIER: RL fusion (prey) and 3xFLAG-FFL fusion (bait) transiently expressed in HEK293, anti-FLAG coated wells, HNTG buffer, 3 h at 4 °C; co-IP efficiency from luciferase activities.

Experiment [2] concerns the target T2, PIH1D2, LUMIER fusion (human) (UniProt Q8WWB5).
T2 sequence: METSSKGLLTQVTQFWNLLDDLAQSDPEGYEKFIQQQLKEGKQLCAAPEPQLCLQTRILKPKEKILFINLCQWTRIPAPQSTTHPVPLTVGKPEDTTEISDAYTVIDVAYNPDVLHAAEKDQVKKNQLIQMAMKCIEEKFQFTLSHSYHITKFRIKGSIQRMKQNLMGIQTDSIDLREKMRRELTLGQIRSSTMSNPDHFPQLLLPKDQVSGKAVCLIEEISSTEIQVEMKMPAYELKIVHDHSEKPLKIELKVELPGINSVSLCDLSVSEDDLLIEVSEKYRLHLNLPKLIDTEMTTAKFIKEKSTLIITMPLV
The description is as above.

Experiment [3] addresses T3, SPAG1, LUMIER fusion (human) (UniProt Q07617).
T3 sequence: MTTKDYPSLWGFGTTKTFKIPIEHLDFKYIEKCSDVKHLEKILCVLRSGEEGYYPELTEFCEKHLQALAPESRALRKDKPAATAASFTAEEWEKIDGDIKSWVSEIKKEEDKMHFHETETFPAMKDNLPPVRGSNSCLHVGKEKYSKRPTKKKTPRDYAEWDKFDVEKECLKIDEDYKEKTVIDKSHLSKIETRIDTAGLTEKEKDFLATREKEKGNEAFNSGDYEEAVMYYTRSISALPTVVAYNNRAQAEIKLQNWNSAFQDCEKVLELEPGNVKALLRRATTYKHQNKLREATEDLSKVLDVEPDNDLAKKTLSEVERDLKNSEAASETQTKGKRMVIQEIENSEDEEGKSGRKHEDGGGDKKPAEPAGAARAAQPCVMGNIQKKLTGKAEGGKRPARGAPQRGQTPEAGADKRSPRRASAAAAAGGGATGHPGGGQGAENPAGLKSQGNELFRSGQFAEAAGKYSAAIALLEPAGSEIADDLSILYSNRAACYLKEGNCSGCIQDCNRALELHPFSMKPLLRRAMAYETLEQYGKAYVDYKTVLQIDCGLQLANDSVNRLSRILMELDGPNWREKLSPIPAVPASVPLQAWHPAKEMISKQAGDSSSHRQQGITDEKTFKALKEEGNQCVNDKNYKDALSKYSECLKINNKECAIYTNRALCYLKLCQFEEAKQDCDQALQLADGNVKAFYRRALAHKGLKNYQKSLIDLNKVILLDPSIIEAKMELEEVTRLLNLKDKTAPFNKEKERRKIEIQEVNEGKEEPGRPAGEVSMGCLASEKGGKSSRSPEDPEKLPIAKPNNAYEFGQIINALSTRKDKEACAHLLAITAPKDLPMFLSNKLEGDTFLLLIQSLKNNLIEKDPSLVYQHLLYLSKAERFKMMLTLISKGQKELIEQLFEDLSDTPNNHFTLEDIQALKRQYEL
Described as above.

In experiment [4] the target is FLAG-FFL-liprin-α2 (human) (UniProt O75334). The experiment is described as follows: co-IP; LUMIER in HeLa and HeLa-PIH1D2 cells: FLAG-FFL-liprin-α2 bait, RL-tagged partners as prey.

These are yes or no findings as the source states them, for the method shown. In cells and extracts the contact can be indirect. Some results given as binding are weak or reduced against the parent protein; the word gives no strength. Sequences can lack the tags named with a protein.

B1: DYX1C1-iso-a, LUMIER fusion (protein, UniProt Q8WXU2 1-420)
chain: MPLQVSDYSWQQTKTAVFLSLPLKGVCVRDTDVFCTENYLKVNFPPFLFEAFLYAPIDDESSKAKIGNDTIVFTLYKKEAAMWETLSVTGVDKEMMQRIREKSILQAQERAKEATEAKAAAKREDQKYALSVMMKIEEEERKKIEDMKENERIKATKALEAWKEYQRKAEEQKKIQREEKLCQKEKQIKEERKKIKYKSLTRNLASRNLAPKGRNSENIFTEKLKEDSIPAPRSVGSIKINFTPRVFPTALRESQVAEEEEWLHKQAEARRAMNTDIAELCDLKEEEKNPEWLKDKGNKLFATENYLAAINAYNLAIRLNNKMPLLYLNRAACHLKLKNLHKAIEDSSKALELLMPPVTDNANARMKAHVRRGTAFCQLELYVEGLQDYEAALKIDPSNKIVQIDAEKIRNVIQGTELKS
B1: in experiment [1], the binding result is given as “binds”.

B2: SPAG1, LUMIER fusion (protein, UniProt Q07617 1-926)
chain: T3 sequence
Take B2: the binding result in experiment [2] was “binds”.

B3: liprin-β2 (PPFIBP2), LUMIER fusion (protein, UniProt Q8ND30 1-876)
chain: MASDASHALEAALEQMDGIIAGTKTGADLSDGTCEPGLASPASYMNPFPVLHLIEDLRLALEMLELPQERAALLSQIPGPTAAYIKEWFEESLSQVNHHSAASNETYQERLARLEGDKESLILQVSVLTDQVEAQGEKIRDLEVCLEGHQVKLNAAEEMLQQELLSRTSLETQKLDLMTEVSELKLKLVGMEKEQREQEEKQRKAEELLQELRHLKIKVEELENERNQYEWKLKATKAEVAQLQEQVALKDAEIERLHSQLSRTAALHSESHTERDQEIQRLKMGMETLLLANEDKDRRIEELTGLLNQYRKVKEIVMVTQGPSERTLSINEEEPEGGFSKWNATNKDPEELFKQEMPPRCSSPTVGPPPLPQKSLETRAQKKLSCSLEDLRSESVDKCMDGNQPFPVLEPKDSPFLAEHKYPTLPGKLSGATPNGEAAKSPPTICQPDATGSSLLRLRDTESGWDDTAVVNDLSSTSSGTESGPQSPLTPDGKRNPKGIKKFWGKIRRTQSGNFYTDTLGMAEFRRGGLRATAGPRLSRTRDSKGQKSDANAPFAQWSTERVCAWLEDFGLAQYVIFARQWVSSGHTLLTATPQDMEKELGIKHPLHRKKLVLAVKAINTKQEEKSALLDHIWVTRWLDDIGLPQYKDQFHESRVDRRMLQYLTVNDLLFLKVTSQLHHLSIKCAIHVLHVNKFNPHCLHRRPADESNLSPSEVVQWSNHRVMEWLRSVDLAEYAPNLRGSGVHGGLIILEPRFTGDTLAMLLNIPPQKTLLRRHLTTKFNALIGPEAEQEKREKMASPAYTPLTTTAKVRPRKLGFSHFGNIRKKKFDESTDYICPMEPSDGVSDSHRVYSGYRGLSPLDAPELDGLDQVGQIS
For the molecule B3, the binding entry in experiment [3] and in experiment [4] was “binds” each time.
